Assay results reported in PubChem BioAssay AID1794844 (National Center for Advancing Translational Sciences (NCATS), 2023).
Out of some 2,800 compounds screened, fewer than 10 were called active. Inconclusive results (about 7%) are left out. Calls come from the whole dose curve; as a rule, active = well fitted inhibition curve with a large enough effect; inconclusive = small, poorly fitted or top-dose-only effect; inactive = no such curve, though single readings can be large or run the other way. This is one part of the list.

Amino acid sequences for entries named in this document (tags omitted). A change or cut given only in a name is not applied to a line headed by its entry.
UniProt C7C422: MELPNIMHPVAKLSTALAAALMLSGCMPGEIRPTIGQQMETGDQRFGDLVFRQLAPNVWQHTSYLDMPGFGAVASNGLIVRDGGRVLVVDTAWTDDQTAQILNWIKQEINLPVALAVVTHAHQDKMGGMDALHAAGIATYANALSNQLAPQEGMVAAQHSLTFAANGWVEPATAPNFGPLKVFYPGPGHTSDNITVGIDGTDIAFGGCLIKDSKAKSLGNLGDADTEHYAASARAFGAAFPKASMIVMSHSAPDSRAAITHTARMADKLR

What follows are compounds tested against Metallo-beta-lactamase type 2 (Klebsiella pneumoniae) (UniProt C7C422) (assay: qHTS to identify inhibitors of the New Delhi Metallo-beta-lactamase (NDM): Nitrocefin screen against the machine-based learning selections.). Conditions: NDM-1 enzyme, nitrocefin hydrolysis, absorbance 485 nm; activity, negative = inhibition: at the top concentration.
Outline: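 Hydrolysis by 2 nM NDM-1 was followed by absorbance after >30 min compound preincubation in HEPES pH 7.0 buffer with 1 uM Zn2SO4. For nitrocefin (16.7 uM, 15 min, 485 nm) and meropenem (50 uM, 30 min, 300 nm), each substrate ran on separate plates.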
Note: % of control where 0% means no effect.

activity, negative = inhibition, inactive:
Cc1cc(=O)n(CC(=O)Nc2ccc(N(C)C)cc2)c(-c2ccc(Cl)cc2)n1 2.25%
OC(c1cccc(C(F)(F)F)c1)c1nc(Nc2cccnc2)n[nH]1 (configuration not stated) 3.42% [at 57.5 µM]
Cc1ccc(C(=O)NC2CCN(c3cn[nH]c(=O)c3)CC2)cc1C -2.26%
COc1ccc(-c2cnc3[nH]cc(CC(=O)NC4CCC(O)CC4)c3c2)cc1 (configuration not stated) 32.5% [at 57.5 µM]
O=C(NC[C@H]1OC[C@@H](NCc2ncc[nH]2)[C@@H]1O)C1CCCC1 -0.682% [at 57.5 µM]
OCc1ccc(CN2CC[C@@H](c3ccc4ccccc4c3)[C@H](O)C2)o1 -5.95%
c1cc(CN2CCNc3cc(-c4ccsc4)ncc3C2)ccn1 11% [at 57.5 µM]
COC[C@H]1CCCN1C(=O)CC[C@H]1CNC(=O)[C@@H]2[C@@H](CCN2Cc2cccs2)N1C -11.5% [at 57.5 µM]
COCCC(=O)NCC12CCC=C1N(CC1CC1)C(=O)CC2 (configuration not stated) -1.2%
COc1ccc(NC(=O)Cc2c[nH]c3ncc(-c4ccccc4)cc23)cn1 7.71% [at 57.5 µM]
O=C(Cc1c[nH]c2ncc(-c3ccsc3)cc12)NCc1cccnc1 -5.95% [at 57.5 µM]
O=C(Nc1ccc(F)c(Cl)c1)N1CCCC(Cn2c(C3CC3)nc3cccnc32)C1 (configuration not stated) 4.6%
COc1ccc(C(=O)N2CC[C@@H](CC(=O)O)[C@@H](CCN3CCN(c4ccccn4)CC3)C2)cc1 -10.6%
NCCn1cc(C(=O)N2CCCC(c3[nH]ncc3Cc3ccccc3)C2)nn1 (configuration not stated) -26%
O=C1Nc2cc(Cl)ccc2C(=O)N2CCN(C(=O)c3ccccc3)C[C@H]12 -14.3% [at 57.5 µM]
COc1cccc(Nc2cc3[nH]ccc3c(C(=O)NCc3c(C)cc(C)[nH]c3=O)n2)c1 -7.58% [at 57.5 µM]
CSc1ncccc1C(=O)NC1CCCN(CCCc2ccccc2)C1 (configuration not stated) 9.24%
COCC(=O)Nc1ccc([C@@H](O)[C@H]2COCC(=O)N2Cc2ccccc2F)cc1 -0.524% [at 57.5 µM]
Cc1nnnn1Cc1ccc(C(=O)N2CCc3nc(-c4cn[nH]c4)[nH]c3C2)cc1 -0.17%
NC(=O)c1cccc(-c2n[nH]c3c2CC(=O)N(Cc2ccccc2)C3)c1 -2.75% [at 57.5 µM]
O=C(NCc1nnc2ccc(-c3ccccc3)nn12)c1cc(F)ccc1Cl -9.4%
CCCNC(=O)N1CC(c2noc(C3CCCN3CC3CC3)n2)C1 (configuration not stated) -6.34%
CCOc1cc(C(=O)N2CCN(c3cc(-c4ccc(Cl)cc4)[nH]n3)CC2)cc(OCC)c1OCC 0.47%
Cc1nc(-c2c3n(c(=O)n(Cc4cccc(Cl)c4)c2=O)CCCCC3)no1 0.916%
CC(C)CCCC(=O)N1C[C@@H](C(=O)O)C[C@@H](C(=O)NCc2ccncc2)C1 27.5%
Cc1ccc(-c2nnc([C@H]3CCN(Cc4ccc(CO)o4)C3)o2)cc1 -0.283% [at 57.5 µM]
C[C@@H](NC(=O)C1CC1)c1onc(-c2ccc(F)cc2)c1C(=O)O 3.4% [at 57.5 µM]
O=C(NC1CCC(O)CC1)C1CCCN(c2nc(-c3ccccc3)nc3c2CCC3)C1 (configuration not stated) 3.71%
Cc1ccncc1C(=O)N1CCC2(CC1)CC(c1ccccc1)C(=O)N2C (configuration not stated) 4.16%
O=C(Cc1c[nH]c2ncc(-c3cccnc3)cc12)NC1CCOCC1 -14.5% [at 57.5 µM]
O=c1ncn(Cc2ccccc2)c2ccc(-c3ccc(O)c(F)c3)nc12 4.77% [at 57.5 µM]
Cn1cc(C(NC(=O)c2ccc3c(c2)ncn3CCO)C2CC(O)C2)cn1 (configuration not stated) -11.3%
C[C@H](O)c1c(-c2ccc(Cl)cc2)noc1C(=O)NC1CC1 3.68% [at 57.5 µM]
CC(C)(O)CCc1cccc(C(=O)NCCNc2cccnc2)c1 -9.84%
O=C(Nc1cccc(C(F)(F)F)c1)N[C@@H]1C[C@H](CO)[C@@H](O)[C@H]1O -6.93% [at 57.5 µM]
CC(C)CCNC(=O)c1cc(-c2ccncc2)cn1C 2.59%
CCc1ncc(C(=O)Nc2nn(CC(F)(F)F)c3cc(OC(C)C)ccc23)cn1 -9.36%
Cc1cc(C(=O)N[C@H](C)c2onc(C)c2C(=O)O)c(C)o1 2.27% [at 57.5 µM]
C[S+](=O)([O-])CCn1ncc2cc(OCc3cccc(-c4ccccc4O)c3)ccc21 -4.12% [at 57.5 µM]
CC(C)CCN1CCNC(=O)C1CC(=O)N(Cc1nccs1)C1CC1 (configuration not stated) -9.28%
COc1ccc(CN2CC[C@@H]3[C@H]2C(=O)NC[C@H](CCC(=O)NCc2ccc(F)cc2)N3C)cc1 -2.38%
CCn1nc(C)cc1C(=O)N1CCOC[C@H](Oc2cccnc2)C1 -8.67% [at 57.5 µM]
Cn1c(CN2CCOCC2)nnc1C1CCCN(S(=O)(=O)C2CC2)C1 (configuration not stated) 5.95%
COc1ccccc1C(=O)NC1CCN(c2ccc(C)cc2)C1=O (configuration not stated) 2.33%
Cc1noc2c(Nc3ccc(C(N)=O)cc3)cc(-c3cccnc3)nc12 12.5% [at 57.5 µM]
O=C(CN1C(=O)CNC1=O)NCCc1noc(-c2ccccc2)n1 0.866%
Cc1ccc(-c2cnc([C@@H]3COCCN3Cc3ccccc3F)[nH]2)cc1 -12.1% [at 57.5 µM]
CC(C)c1cccc(NC(=O)c2ccc3c(c2)N(C)C2CCCCN2C3=O)c1 (configuration not stated) -3.6%
COc1ccc(CN2C(=O)CO[C@H]3CN(C4CCOCC4)C[C@H]32)cc1 -2.35% [at 57.5 µM]
CN1C[C@H](C(=O)NCc2ccncc2)C[C@H]1c1cccc(C(F)(F)F)c1 0.278% [at 57.5 µM]
CC(C)(O)CCc1cccc(C(=O)N(Cc2ccc3c(c2)OCO3)C2CC2)c1 -5.98%
c1ccc(Nc2ncc(-c3ccccc3)c3c2OCC3)cc1 1.17% [at 76.7 µM]
CC1(C(=O)NCc2cnccn2)CCCc2cnc(NCc3ccccc3)nc21 (configuration not stated) -5.69% [at 57.5 µM]
O=C1N[C@H](CCC(=O)N2CCN(Cc3ccccc3)CC2)C(=O)Nc2ccccc21 0.58%
Cc1cc2c(cc1C(=O)N[C@H](c1ccccn1)C1CC(O)C1)OCCO2 (some centres not stated) -0.47%
O=C(NCCc1nccc(-c2ccccc2)n1)[C@H]1CCC[C@H](O)C1 -12.7%
O=[N+]([O-])c1ccccc1CN1C[C@H](O)C[C@H]1c1nc(-c2ccncc2)no1 4.16% [at 57.5 µM]
CNC(=O)[C@@H]1CN(C(=O)c2cc3cc(OC)ccc3[nH]2)C[C@H]1CO -11%
COC(=O)[C@@H]1Cc2ncn(Cc3ccc(OC)cc3)c2CN1C(=O)c1ccc(C#N)cc1 2.06% [at 57.5 µM]
O=C1NCCC[C@@H]1NC(=O)[C@H]1CN(C(=O)c2cccc(F)c2)CCN1S(=O)(=O)c1ccc(F)cc1 4.23%
CC1=C[C@@H](CNC(=O)C2CC2)[C@H](C(C)C)C[C@H]1CC(=O)N1CCOCC1 6.93% [at 57.5 µM]
CC(C)C[C@@H]1N[C@H](C(=O)NCc2ccc(C(F)(F)F)cc2)Cc2c[nH]c3cccc1c23 1.11% [at 57.5 µM]
CC(C)(C)CC(=O)Nc1ccc([C@@H](O)[C@H]2COCC(=O)N2Cc2ccccc2F)cc1 -1.39% [at 57.5 µM]
Cc1cc(C)c(CNC(=O)c2nc(Nc3ccccc3)cc3[nH]ccc23)c(=O)[nH]1 -4.13% [at 57.5 µM]
O=c1cc(-c2ccccn2)oc2c(Nc3ccccc3)nccc12 -1.82% [at 57.5 µM]
O=C(COc1ccccc1)N[C@H]1CO[C@H]2[C@@H]1OC[C@H]2OC(=O)Nc1ccccc1 -4.57% [at 57.5 µM]
CS(=O)(=O)Nc1cc(-c2noc([C@@H]3CCCN3Cc3ccccc3)n2)ccn1 -3.05% [at 57.5 µM]
CCCS(=O)(=O)N1CCC(Oc2nccnc2N2CCOCC2)C1 (configuration not stated) 1.63%
NC(=O)c1cccc(-c2n[nH]c3c2CC(=O)N(CCOc2ccccc2)C3)c1 -8.42% [at 57.5 µM]
O=C(Cc1c[nH]c2ncc(-c3ccccc3Oc3ccccc3)cc12)NCc1cccnc1 -1.93% [at 57.5 µM]
O=C(NCc1csc(-c2cnccn2)n1)C(c1cccnc1)N1CCOCC1 (configuration not stated) -2.44%
O=C(c1ccc(Oc2ccccc2)cc1)N1CCNc2cnc(Nc3cccc(C(F)(F)F)c3)nc2C1 2.49%
COCCNC(=O)[C@H]1C[C@H](Oc2ccccc2)CN1C(=O)Cc1cccc(C)c1 -10.4%
Cc1ccc(CCNC(=O)Cn2nc(C)n(CCc3ccccc3)c2=O)o1 1.62%
Cc1oc(C(O)c2cccc(O)c2)nc1C(=O)Nc1ccc(N2CCOCC2)cc1 (configuration not stated) 2.1% [at 57.5 µM]
O=C(COc1ccccc1)N1CC[C@H]2CC(=O)N(c3ccccc3)CC[C@H]2C1 -2.55% [at 57.5 µM]
O=C(O)[C@@H]1CN(C(=O)c2ccc(=O)[nH]c2)C[C@H]1c1ccc2c(c1)OCO2 -5.25%
COc1cccc(N2C(=O)N[C@@H]3CCN(S(=O)(=O)c4ccccc4)[C@@H]3C2=O)c1 0.447% [at 57.5 µM]
CS(=O)(=O)c1ccc(CN2CCC[C@H]2c2nc(-c3ccnc(N4CCC(C(N)=O)CC4)c3)no2)cc1 -1.81%
O=C(Cc1c[nH]c2ncc(-c3cccc(F)c3)cc12)NCc1cccnc1 9.64% [at 57.5 µM]
O=C(CCc1ccc(O)cc1)N1CCN(Cc2ccccc2)CC(O)C1 (configuration not stated) -1.57%
Nc1nc(NCCNC(=O)c2ccccc2Cl)cc(C2CC(O)C2)n1 (configuration not stated) -3.42%
NC1CCCCN(C(=O)c2ccc3n[nH]nc3c2)C1 (configuration not stated) -3.83%
CCCn1nc(C)c(-c2cc(C(=O)N3CCc4c(nc5cc(-c6ccccc6)[nH]n5c4=O)C3)[nH]n2)c1C 0.136%
O=C(NCC(F)F)C1CN(c2ccccc2)C(=O)N1 (configuration not stated) 0.427% [at 57.5 µM]
CC(=O)NC1(C)CCN(Cc2cccc(-c3ccc4ccccc4c3)c2)C1 (configuration not stated) -4.87% [at 57.5 µM]
Cc1cc(C(=O)N[C@H]2[C@H](O)[C@H](O)C[C@@H]2c2cccnc2)no1 0.0321% [at 57.5 µM]
Cc1cc(-c2cc3c(cn2)CN(Cc2ccccc2O)CCN3)ccn1 8.17% [at 57.5 µM]
CSc1ccc(-c2ccc3c(c2)C(=O)N2CCN(C(=O)CCC(=O)O)C[C@H]2C(=O)N3)cc1 -6.01%
NC(=O)c1ccc(NC(=O)C[C@H]2NC(=O)c3ccccc3NC2=O)cc1 8.29%
CN1CCCC2(C1)CN(Cc1cccnc1)c1ccc(C(=O)Nc3ccccc3)cc12 (configuration not stated) 2.06% [at 57.5 µM]
Cc1noc(C)c1CCC(=O)NC(c1cnn(C)c1)C1CC(O)C1 (configuration not stated) 12.5%
CCCN1C(=O)Cc2ccccc2C1C(=O)NCc1cccc(F)c1 (configuration not stated) -2.47%
CSc1cccc(NC(=O)N[C@H]2CCN3C(=O)[C@H](CC4CCCCC4)NC(=O)[C@@H]3C2)c1 2.54%
Cc1cccc(OCCc2noc(C3CCCNC3)n2)c1 (configuration not stated) -1.59%
COc1ccc(S(=O)(=O)N2CCc3c(C(=O)NC4CC4)cccc32)cc1 -2%
CNC(=O)C1CCN(C(=O)N2CC3CC(C2)[C@H]2CCCC(=O)N2C3)CC1 (some centres not stated) 3.61%

In the list so far, 3 have an aryl thioether with sulfur outside any ring:
activity, negative = inhibition, inactive:
CSc1ncccc1C(=O)NC1CCCN(CCCc2ccccc2)C1 (configuration not stated) 9.24%
CSc1ccc(-c2ccc3c(c2)C(=O)N2CCN(C(=O)CCC(=O)O)C[C@H]2C(=O)N3)cc1 -6.01%
CSc1cccc(NC(=O)N[C@H]2CCN3C(=O)[C@H](CC4CCCCC4)NC(=O)[C@@H]3C2)c1 2.54%

Of the compounds above, these have a furan ring, fused or not.
activity, negative = inhibition, inactive:
OCc1ccc(CN2CC[C@@H](c3ccc4ccccc4c3)[C@H](O)C2)o1 -5.95%
Cc1ccc(-c2nnc([C@H]3CCN(Cc4ccc(CO)o4)C3)o2)cc1 -0.283% [at 57.5 µM]
Cc1cc(C(=O)N[C@H](C)c2onc(C)c2C(=O)O)c(C)o1 2.27% [at 57.5 µM]
Cc1ccc(CCNC(=O)Cn2nc(C)n(CCc3ccccc3)c2=O)o1 1.62%
